Laboratory results taken from the supplement of paper PMC6078165.

System: MDAMB436
Assay: relative JC-1 red fluorescence (viability) vs pre-drug, coculture with fibroblast (fraction); higher = more viable cancer cells
Description: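 JC-1 labelled TNBC cells cocultured 1:1 (1,500 cells each) with CellTrace Violet stained primary or stromal fibroblasts in 384-well plates in FluoroBrite medium, treated with one of 42 anticancer drugs at 0.1, 1, 10 or 100 uM. JC-1 red fluorescence (mitochondrial integrity in cancer cells only) was read by plate reader every 8 h for 72 h. Values are normalised to each well's pre-drug value. The stock of one drug was tenfold lower, so its dose labels may be too high.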

C=C1C[C@@H]2[C@H](CC[C@]3(C)C(=O)CC[C@@H]23)[C@@]2(C)C=CC(=O)C=C12 [Exemestane]
relative JC-1 red fluorescence
Details | 8 h | 16 h | 24 h | 32 h | 40 h | 48 h | 56 h | 64 h | 72 h
10 µM, coculture fibroblast: C12385 | 0.8474 | 0.7756 | 0.749 | 0.68 | 0.63 | 0.603 | 0.576 | 0.534 | 0.52
10 µM, coculture fibroblast: H6013 | 0.891 | 0.836 | 0.801 | 0.805 | 0.777 | 0.784 | 0.748 | 0.718 | 0.67
10 µM, coculture fibroblast: H6019 | 0.78519 | 0.7075 | 0.7102 | 0.645 | 0.6043 | 0.581 | 0.531 | 0.494 | 0.46
10 µM, coculture fibroblast: H6076 | 0.784 | 0.66 | 0.646 | 0.609 | 0.594 | 0.585 | 0.582 | 0.572 | 0.564
10 µM, coculture fibroblast: H6231 | 0.749 | 0.66 | 0.564 | 0.523 | 0.492 | 0.4553 | 0.4321 | 0.4043 | 0.387
10 µM, coculture fibroblast: HADF | 0.901 | 0.858 | 0.817 | 0.785 | 0.762 | 0.757 | 0.712 | 0.676 | 0.631
10 µM, coculture fibroblast: HCFa | 0.927 | 0.897 | 0.877 | 0.867 | 0.831 | 0.83 | 0.771 | 0.74 | 0.685
10 µM, coculture fibroblast: HCPF | 0.817 | 0.746 | 0.648 | 0.606 | 0.568 | 0.519 | 0.479 | 0.461 | 0.434
10 µM, coculture fibroblast: HHSteC | 0.889 | 0.835 | 0.824 | 0.791 | 0.778 | 0.773 | 0.711 | 0.677 | 0.624
10 µM, coculture fibroblast: HMF | 0.829 | 0.826 | 0.723 | 0.667 | 0.592 | 0.54 | 0.499 | 0.46731 | 0.442
10 µM, coculture fibroblast: HPFa | 0.912 | 0.866 | 0.833 | 0.796 | 0.77 | 0.772 | 0.69 | 0.644 | 0.567
10 µM, coculture fibroblast: HUF | 0.8857 | 0.8121 | 0.7985 | 0.731 | 0.681 | 0.659 | 0.629 | 0.61 | 0.596
10 µM, coculture fibroblast: Hs5 | 0.8 | 0.716 | 0.652 | 0.59 | 0.562 | 0.517 | 0.507 | 0.469 | 0.454
10 µM, coculture fibroblast: Hs27A | 0.883 | 0.829 | 0.842 | 0.844 | 0.821 | 0.876 | 0.8 | 0.786 | 0.713
10 µM, coculture fibroblast: Hs343T | 0.777 | 0.682 | 0.661 | 0.65 | 0.623 | 0.587 | 0.573 | 0.57 | 0.566
10 µM, coculture fibroblast: WS1 | 0.8342 | 0.74 | 0.727 | 0.662 | 0.622 | 0.596 | 0.562 | 0.51629 | 0.4893
100 µM, coculture fibroblast: C12385 | 0.8356 | 0.797 | 0.807 | 0.756 | 0.732 | 0.709 | 0.68414 | 0.6612 | 0.649
100 µM, coculture fibroblast: H6013 | 0.881 | 0.80636 | 0.794 | 0.779 | 0.764 | 0.776 | 0.735 | 0.718 | 0.676
100 µM, coculture fibroblast: H6019 | 0.7946 | 0.77 | 0.782 | 0.74 | 0.725 | 0.713 | 0.693 | 0.682 | 0.667
100 µM, coculture fibroblast: H6076 | 0.813 | 0.711 | 0.724 | 0.7 | 0.669 | 0.6376 | 0.6397 | 0.6296 | 0.6213
100 µM, coculture fibroblast: H6231 | 0.784 | 0.703 | 0.689 | 0.636 | 0.581 | 0.544 | 0.503 | 0.488 | 0.452
100 µM, coculture fibroblast: HADF | 0.899 | 0.8635 | 0.8583 | 0.854 | 0.836 | 0.8559 | 0.797 | 0.781 | 0.742
100 µM, coculture fibroblast: HCFa | 0.848 | 0.848 | 0.842 | 0.822 | 0.805 | 0.826 | 0.763 | 0.751 | 0.698
100 µM, coculture fibroblast: HCPF | 0.845 | 0.769 | 0.819 | 0.785 | 0.739 | 0.698 | 0.643 | 0.601 | 0.557
100 µM, coculture fibroblast: HHSteC | 0.878 | 0.848 | 0.839 | 0.815 | 0.8092 | 0.823 | 0.7523 | 0.727 | 0.67
100 µM, coculture fibroblast: HMF | 0.922 | 0.801 | 0.793 | 0.749 | 0.692 | 0.64 | 0.587 | 0.553 | 0.502
100 µM, coculture fibroblast: HPFa | 0.904 | 0.88193 | 0.8 | 0.786 | 0.8282 | 0.83281 | 0.754 | 0.762 | 0.704
100 µM, coculture fibroblast: HUF | 0.8795 | 0.801 | 0.811 | 0.737 | 0.708 | 0.68 | 0.65 | 0.639 | 0.627
100 µM, coculture fibroblast: Hs5 | 0.825 | 0.736 | 0.742 | 0.691 | 0.663 | 0.613 | 0.606 | 0.577 | 0.562
100 µM, coculture fibroblast: Hs27A | 0.86982 | 0.8232 | 0.81827 | 0.792 | 0.753 | 0.794 | 0.701 | 0.682 | 0.616
100 µM, coculture fibroblast: Hs343T | 0.856 | 0.751 | 0.73 | 0.688 | 0.644 | 0.6 | 0.559 | 0.534 | 0.518
100 µM, coculture fibroblast: WS1 | 0.807 | 0.745 | 0.76032 | 0.7204 | 0.69 | 0.67 | 0.657 | 0.63 | 0.619

The reference is the same well before dosing, and untreated signal decays as well.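 Fibroblast labels denote human fibroblasts, mainly primary ones from uterus (C12385, HUF), lung (H6013), bone (Hs27A), adrenal (HADF) and skin (WS1), plus mammary HMF and breast cancer-associated Hs343T. Cancer cells are basal-like or mesenchymal-like triple-negative breast cancer lines. A hit is a response shift exceeding 3x replicate standard deviation. The tissue of the other fibroblasts is not given here.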
